Measurements: PubChem BioAssay AID2685 (National Center for Advancing Translational Sciences (NCATS), 2010)
Hit rate of the full screen: of about 320,000 compounds, about 2,100 (0.66%) were called active. The shares of active, inactive and inconclusive entries below differ from those in the screen. Calls follow the shape of the dose curve; as a rule, active = well fitted inhibition curve with a large enough effect in the signal ratio, with a control signal flat (not every such curve was filed as active); inconclusive = small, poorly fitted or top-dose-only effect, or effect the other way, or a change in a side signal; inactive = flat fitted curve, though single readings scatter; the % refers to the signal ratio. Potencies of inconclusive entries are doubtful fits and often do not repeat.

Test: qHTS Assay for Lipid Storage Modulators in Drosophila S3 Cells
Settings: BODIPY lipid droplet fluorescence, 18-24 h, cells fed with added oleic acid; lipid storage change, negative = inhibition: at 46.1 µM (top of the series) unless noted
Procedure, shortened: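 Drosophila S3 cells loaded with oleic acid (400 uM, as added) and compounds at several concentrations; lipid droplets imaged by 488-nm laser-scanning cytometry, 500–530 nm intensity and object ratio to cell channel. Percent activity normalized to 20 uM Triacsin C.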
% is scaled to controls: 0 for no effect and ±100 for the full control effect; potency is read from the fitted curve at half-maximal effect.

SMILES	lipid storage change, negative = inhibition	Potency
O=C(N/N=C\c1cn[nH]c1-c1ccccc1)c1ccc([N+](=O)[O-])cc1	inconclusive: 12.2%	–
COC(=O)C1=C(C)N=C2SC(C#N)=C(N)N2C1c1cc(OC)c(OC)c(OC)c1 (stereo not given)	inactive	–
O=C1NN(c2ccccc2)C(=O)/C1=C\c1ccccc1	inconclusive: -40.6%	–
COc1cccc(CNC(=O)CCNC(=O)C2CCN(S(=O)(=O)c3ccccc3)CC2)c1	–	inconclusive: 0.517 µM [activator, single point]
Cc1ccc(-c2csc3nc[nH]c(=O)c23)cc1	–	inconclusive: 0.651 µM [falling, single point]
CN(C)S(=O)(=O)c1cc(NC(=O)CN2CCN(c3ccccc3O)CC2)ccc1Cl	inconclusive: 12.3%	–
CC(CCc1ccccc1)NC(=O)COC(=O)c1cccn1C (stereo not given)	–	inconclusive: 4.61 µM [falling, single point]
CCOC(=O)N1CCN(Cc2oc(CO)cc(=O)c2O)CC1	–	inconclusive: 0.651 µM [falling, partial curve, poor fit]
Cc1ccc(N2CC(C(=O)NCCS(=O)(=O)N3CCN(c4ccc(F)cc4)CC3)CC2=O)cc1 (stereo not given)	–	active: 2.06 µM
Nc1ccn([C@H]2CS[C@@H](CO)O2)c(=O)n1	inconclusive: -10.5%	–
Cc1ccc(Oc2ccc(S(=O)(=O)N3CCOCC3)cc2C(N)=O)c(-n2nc3ccccc3n2)c1	inconclusive: -13%	–
N#CCCNC(=O)CCN1CCOCC1	inconclusive: 49.7%	–
C#CCOC(=O)C[N+](C)(C)C/C=C/c1ccccc1	inconclusive: 26.7%	–
Oc1c(CN2CCOCC2)cc(-c2ccccc2)cc1CN1CCOCC1	inconclusive: 24.7%	–
O=C(COC(=O)c1cc[n+]([O-])cc1)Nc1cccc(Br)c1	–	inconclusive: 29.1 µM [activator, single point]
CC(=O)Nc1ccc(NS(=O)(=O)c2ccc(C)cc2)c([N+](=O)[O-])c1	inconclusive: 17.3%	–
COc1cc(NC(=O)[C@H]2CCCN2S(=O)(=O)c2cccc3cccnc23)cc(OC)c1OC	–	inconclusive: 18.4 µM [activator, partial curve]
COc1ccc(OC)c(NC(=O)c2cc3n(n2)C(C(F)(F)F)CC(c2ccc4c(c2)OCO4)N3)c1 (stereo not given)	inactive	–
Cc1cc(C)nc(Sc2ccc([N+](=O)[O-])cc2[N+](=O)[O-])n1	–	active: 16.4 µM
O=C(Nc1ccc(Cl)cc1)Nc1ccccc1CC[N+](=O)[O-]	inconclusive: 10.8%	–
CN(CCCC(=O)NC1CC(C)(C)NC(C)(C)C1)S(=O)(=O)c1ccc([N+](=O)[O-])cc1	inconclusive: -34.9% [cytotoxic] [at 0.369 µM]	–
COCCn1c(SCC(=O)Nc2ccc(C(C)=O)cc2)nnc1-c1ccco1	inconclusive: -3.49%	–
COc1ccnc2c1c(=O)n(Cc1ccc(Cl)cc1Cl)c(=O)n2C	inconclusive: 76.2%	–
O=C(NCc1cccnc1)c1ccc2c(=O)n(CCCN3CCCC3=O)c(=S)[nH]c2c1	–	inconclusive: 2.59 µM [activator, full curve]
Cc1ccc(S(=O)(=O)NCCc2nnc(SCc3cccnc3)n2C)cc1	inconclusive: 26.9%	–
Cc1cc2nc3c(=O)n(Cc4ccccc4)c(=O)[nH]c3nc2cc1N	–	inconclusive: 23.1 µM [falling, partial curve, poor fit]
Cc1ccc(C(=O)c2sc3nc4c(cc3c2N)CCC4)cc1	inconclusive: 17.8%	–

SMILES	lipid storage change, negative = inhibition	Potency
NNC(=O)c1sccc1OCc1ccc(Cl)cc1	inconclusive: 25.2%	–
O=C(COC(=O)CCN1C(=O)c2ccccc2C1=O)Nc1ccc(S(=O)(=O)N2CCCC2)cc1	inconclusive: 31.2%	–
O=C(c1cc(-c2ccc(Cl)c(Cl)c2)on1)N1CCCCCC1	–	inconclusive: 29.1 µM [activator, single point]
CCn1c(SCC(=O)N(C)Cc2ccc(OC)c(F)c2)nc2cc(S(N)(=O)=O)ccc21	inconclusive: -8.12%	–
Cc1ccc2cc(CN(Cc3ccco3)C(=O)c3ccco3)c3nnnn3c2c1	–	inconclusive: 32.6 µM [falling, single point]
O=C(Nc1ccc(F)cc1)c1ccc2[nH]c(=O)c(=O)[nH]c2c1	inactive	–
Cc1c(/C=N/NC(=O)c2ccc3c(c2)OCO3)cnn1C	inconclusive: 486%	–
Cc1ccc(NC2=NC3(CCCC3)N=C(N)N2)c(C)c1	inconclusive: 27.6% [at 9.22 µM]	–
C=CCn1c(SCc2ccccc2)nc(O)cc1=O	inconclusive: 17.7%	–
Clc1ccc(Oc2nc(N3CCOCC3)nc(N3CCOCC3)n2)cc1	–	inconclusive: 6.51 µM [falling, single point]
CN(C)c1oc(-c2ccc(OCc3ccc(Cl)cc3)cc2)nc1C#N	–	inconclusive: 2.91 µM [activator, full curve]
N#Cc1c(-c2ccco2)nc(NCC2CCCO2)[nH]c1=O (stereo not given)	inconclusive: 169%	–
CCOc1ccc(C(=O)OCC(=O)N2CC(C)OC(C)C2)cc1OCC (stereo not given)	inactive	–
COc1ccc(CCNC(=O)CN(C)S(=O)(=O)c2ccc(OC)cc2)cc1	inconclusive: 14.7%	–
COc1ccc(-c2cc(C(F)(F)F)nc(SCC(=O)NCc3ccco3)n2)cc1OC	inconclusive: -65.1%	–
FC(F)(F)c1ccccc1NC(=S)Nn1cnnc1	inconclusive: 13.3%	–
CCC1=NN2C(=N)/C(=C/c3ccc(OS(=O)(=O)c4ccc(C)cc4)c(OC)c3)C(=O)N=C2S1	inactive	–
Nn1cc(-c2ccccc2)nc1SCC(=O)NCC(F)(F)F	inactive	–
COc1ccc(/C=C/C(=O)c2ccccn2)cc1	–	inconclusive: 0.82 µM [falling, full curve, poor fit]
O=C(COc1ccccc1)N1CCc2ccccc2C1	inconclusive: 47.4%	–
CCCNC(=O)c1ccccc1NC(=O)c1ccc2c(=O)n3c(nc2c1)CCC3	inconclusive: -11.6%	–
CCc1ccc[n+](-c2nc3ccccc3nc2C(=C=[N-])C#N)c1	inconclusive: -12.4%	–
Cc1cnn(-c2nc(-c3ccccc3)cc(-c3ccccc3)n2)c1	inconclusive: -6.59%	–
CC(OC(=O)c1ccccc1O)C(=O)Nc1cccc(Cl)c1 (stereo not given)	inconclusive: 14.4%	–
O=C(C[n+]1cccc(CNC(=O)c2ccc(OC(F)F)cc2)c1)c1ccccc1	inconclusive: -30.2% [at 0.00295 µM]	–
O=C(Nc1cccc(S(=O)(=O)N2CCCCCC2)c1)C1CCN(C(=O)c2ccc(Cl)cc2)CC1	inconclusive: 22.3%	–
Cc1cc(C)cc(N(CC(=O)NCc2cccnc2)S(C)(=O)=O)c1	inconclusive: 6.17%	–

Another view of some results above:

| SMILES | lipid storage change, negative = inhibition | Potency |
| --- | --- | --- |
| O=C(COC(=O)CCN1C(=O)c2ccccc2C1=O)Nc1ccc(S(=O)(=O)N2CCCC2)cc1 | inconclusive: 31.2% | – |
| CCn1c(SCC(=O)N(C)Cc2ccc(OC)c(F)c2)nc2cc(S(N)(=O)=O)ccc21 | inconclusive: -8.12% | – |
| Cc1ccc2cc(CN(Cc3ccco3)C(=O)c3ccco3)c3nnnn3c2c1 | – | inconclusive: 32.6 µM [falling, single point] |
| O=C(Nc1ccc(F)cc1)c1ccc2[nH]c(=O)c(=O)[nH]c2c1 | inactive | – |
| N#Cc1c(-c2ccco2)nc(NCC2CCCO2)[nH]c1=O (stereo not given) | inconclusive: 169% | – |
| COc1ccc(CCNC(=O)CN(C)S(=O)(=O)c2ccc(OC)cc2)cc1 | inconclusive: 14.7% | – |
| COc1ccc(-c2cc(C(F)(F)F)nc(SCC(=O)NCc3ccco3)n2)cc1OC | inconclusive: -65.1% | – |
| FC(F)(F)c1ccccc1NC(=S)Nn1cnnc1 | inconclusive: 13.3% | – |
| CCC1=NN2C(=N)/C(=C/c3ccc(OS(=O)(=O)c4ccc(C)cc4)c(OC)c3)C(=O)N=C2S1 | inactive | – |
| Nn1cc(-c2ccccc2)nc1SCC(=O)NCC(F)(F)F | inactive | – |
| COc1ccc(/C=C/C(=O)c2ccccn2)cc1 | – | inconclusive: 0.82 µM [falling, full curve, poor fit] |
| O=C(COc1ccccc1)N1CCc2ccccc2C1 | inconclusive: 47.4% | – |
| CCCNC(=O)c1ccccc1NC(=O)c1ccc2c(=O)n3c(nc2c1)CCC3 | inconclusive: -11.6% | – |
| O=C(C[n+]1cccc(CNC(=O)c2ccc(OC(F)F)cc2)c1)c1ccccc1 | inconclusive: -30.2% [at 0.00295 µM] | – |
| Cc1cc(C)cc(N(CC(=O)NCc2cccnc2)S(C)(=O)=O)c1 | inconclusive: 6.17% | – |

(continued)

SMILES	lipid storage change, negative = inhibition	Potency
CCn1c(=O)cc(OCC(=O)NCCCN2CCN(c3cccc(Cl)c3)CC2)c2ccccc21	–	inconclusive: 7.31 µM [activator, partial curve]
CC(C)Oc1ccc(S(=O)(=O)N2CCCCC2)cc1NC(=O)C1CCCC1	inconclusive: 21.4%	–
O=C(COCC(=O)N1CCOCC1)N1CCOCC1	inconclusive: 12.1%	–
COc1ccccc1NS(=O)(=O)c1ccc2oc(SCc3ccc(F)cc3)nc2c1	inactive	–
COc1ccc(C(CNC(=O)Nc2ccccc2)N2CCN(C)CC2)cc1 (stereo not given)	inconclusive: 96.3%	–
O=C(COC(=O)c1ccccc1F)c1ccc(-n2nncc2-c2ccco2)cc1	inconclusive: 70%	–
CCOc1ccc(NC(=O)C2=NN(c3ccccc3)C(=O)CC2)cc1S(=O)(=O)N1CCCCC1	–	inconclusive: 0.82 µM [activator, single point]
Cc1csc(NC(=O)CSc2nnc(-c3ccco3)n2C)n1	–	inconclusive: 10.3 µM [activator, partial curve, poor fit]
Oc1ccc(NC(=S)Nc2ccc(F)cc2)cc1	–	inconclusive: 6.51 µM [falling, partial curve, poor fit]
C=CCNc1nc(C(=O)OCC(=O)c2ccccc2)cs1	inactive	–
CC(C)(C)c1ccc(Oc2ccc(NC(=O)c3ccco3)cn2)cc1	inconclusive: -28.1%	–
COc1ccc(NC(=O)CCOc2ccc(C)cc2)cc1S(=O)(=O)N1CCOCC1	inconclusive: 1.72%	–
CC1=NN(C(N)=S)C(=O)C1N=Nc1ccccc1C (stereo not given)	inactive	–
O=C(CSc1ccccc1)Nc1ccc2c(c1)OCO2	inconclusive: 34%	–
COc1ccc(OC)c(C(=O)NC2CC(C)(C)Cc3c2cnn3-c2ccccc2)c1 (stereo not given)	inconclusive: -27.8%	–
CCC(=O)c1ccccc1OCC(=O)Nc1c(C)cccc1C	inconclusive: 5.11%	–
O=C(N[C@@H](c1ccccc1)[C@@H]1C[C@H]1C(=O)O)OCc1ccccc1	inconclusive: 3.41%	–
COc1ccc(CCNC(=O)C2CCC(=O)N(C3CC3)C2)c(OC)c1 (stereo not given)	–	inconclusive: 6.51 µM [falling, single point]
COc1ccccc1NC(=O)c1c(O)c2ccccc2[nH]c1=O	inconclusive: 8.92%	–
COC(=O)CNC(c1ccccc1)c1cc(Br)ccc1N (stereo not given)	inconclusive: -3.98%	–
CCOC(=O)c1ccc(NC(=O)c2cc(OC)c(OC)c(OC)c2Br)cc1	inconclusive: 15.8%	–
Cc1ccc(C(=O)Nc2ccc(O)c(C(=O)O)c2)o1	inconclusive: -50.8%	–
CC/C(O)=C1\C(=O)CC(c2ccccc2)CC1=NC(C)C (stereo not given)	–	inconclusive: 11.6 µM [activator, partial curve]
O=C(CSCc1c(F)cccc1Cl)NCc1cccnc1	inconclusive: 5.99%	–
N=c1c[n+](-c2ccc(Cl)cc2)[n-]o1	inconclusive: 4.41%	–
O=C1CC(CCC(=O)NC2CC2)c2ccccc2N1 (stereo not given)	inconclusive: -6.08%	–
